Data published in PMC8730729.
No constants are given. Whether binding was seen depends on the method and setting. Binding seen in cells or lysates may run through a third protein. A yes stands for co-enrichment or nearness to the bait. Other partners may have been found. For part of these data: Sequences can lack the tags named with a protein.

Amino acid sequences for entries named in this document (tags omitted). Residues count along the entry.
UniProt Q86V87: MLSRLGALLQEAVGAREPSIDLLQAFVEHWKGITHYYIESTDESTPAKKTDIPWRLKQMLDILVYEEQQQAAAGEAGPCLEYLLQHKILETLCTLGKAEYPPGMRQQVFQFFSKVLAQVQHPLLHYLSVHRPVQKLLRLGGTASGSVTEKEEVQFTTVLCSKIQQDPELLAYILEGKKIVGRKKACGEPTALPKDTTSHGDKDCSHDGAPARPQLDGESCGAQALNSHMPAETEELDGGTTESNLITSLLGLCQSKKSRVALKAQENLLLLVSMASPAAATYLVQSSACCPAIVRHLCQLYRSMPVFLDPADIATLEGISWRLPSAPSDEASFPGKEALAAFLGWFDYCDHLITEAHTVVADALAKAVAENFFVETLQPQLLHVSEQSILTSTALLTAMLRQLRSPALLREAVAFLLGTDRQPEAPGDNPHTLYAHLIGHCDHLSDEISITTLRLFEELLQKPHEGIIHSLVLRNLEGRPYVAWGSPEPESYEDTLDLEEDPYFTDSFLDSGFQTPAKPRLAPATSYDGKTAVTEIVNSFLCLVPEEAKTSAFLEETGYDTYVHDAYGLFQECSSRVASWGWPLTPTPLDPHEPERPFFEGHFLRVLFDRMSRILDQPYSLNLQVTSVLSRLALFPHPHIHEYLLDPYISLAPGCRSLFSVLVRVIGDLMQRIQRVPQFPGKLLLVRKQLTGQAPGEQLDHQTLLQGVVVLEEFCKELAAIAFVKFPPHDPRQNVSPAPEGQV
UniProt Q13439: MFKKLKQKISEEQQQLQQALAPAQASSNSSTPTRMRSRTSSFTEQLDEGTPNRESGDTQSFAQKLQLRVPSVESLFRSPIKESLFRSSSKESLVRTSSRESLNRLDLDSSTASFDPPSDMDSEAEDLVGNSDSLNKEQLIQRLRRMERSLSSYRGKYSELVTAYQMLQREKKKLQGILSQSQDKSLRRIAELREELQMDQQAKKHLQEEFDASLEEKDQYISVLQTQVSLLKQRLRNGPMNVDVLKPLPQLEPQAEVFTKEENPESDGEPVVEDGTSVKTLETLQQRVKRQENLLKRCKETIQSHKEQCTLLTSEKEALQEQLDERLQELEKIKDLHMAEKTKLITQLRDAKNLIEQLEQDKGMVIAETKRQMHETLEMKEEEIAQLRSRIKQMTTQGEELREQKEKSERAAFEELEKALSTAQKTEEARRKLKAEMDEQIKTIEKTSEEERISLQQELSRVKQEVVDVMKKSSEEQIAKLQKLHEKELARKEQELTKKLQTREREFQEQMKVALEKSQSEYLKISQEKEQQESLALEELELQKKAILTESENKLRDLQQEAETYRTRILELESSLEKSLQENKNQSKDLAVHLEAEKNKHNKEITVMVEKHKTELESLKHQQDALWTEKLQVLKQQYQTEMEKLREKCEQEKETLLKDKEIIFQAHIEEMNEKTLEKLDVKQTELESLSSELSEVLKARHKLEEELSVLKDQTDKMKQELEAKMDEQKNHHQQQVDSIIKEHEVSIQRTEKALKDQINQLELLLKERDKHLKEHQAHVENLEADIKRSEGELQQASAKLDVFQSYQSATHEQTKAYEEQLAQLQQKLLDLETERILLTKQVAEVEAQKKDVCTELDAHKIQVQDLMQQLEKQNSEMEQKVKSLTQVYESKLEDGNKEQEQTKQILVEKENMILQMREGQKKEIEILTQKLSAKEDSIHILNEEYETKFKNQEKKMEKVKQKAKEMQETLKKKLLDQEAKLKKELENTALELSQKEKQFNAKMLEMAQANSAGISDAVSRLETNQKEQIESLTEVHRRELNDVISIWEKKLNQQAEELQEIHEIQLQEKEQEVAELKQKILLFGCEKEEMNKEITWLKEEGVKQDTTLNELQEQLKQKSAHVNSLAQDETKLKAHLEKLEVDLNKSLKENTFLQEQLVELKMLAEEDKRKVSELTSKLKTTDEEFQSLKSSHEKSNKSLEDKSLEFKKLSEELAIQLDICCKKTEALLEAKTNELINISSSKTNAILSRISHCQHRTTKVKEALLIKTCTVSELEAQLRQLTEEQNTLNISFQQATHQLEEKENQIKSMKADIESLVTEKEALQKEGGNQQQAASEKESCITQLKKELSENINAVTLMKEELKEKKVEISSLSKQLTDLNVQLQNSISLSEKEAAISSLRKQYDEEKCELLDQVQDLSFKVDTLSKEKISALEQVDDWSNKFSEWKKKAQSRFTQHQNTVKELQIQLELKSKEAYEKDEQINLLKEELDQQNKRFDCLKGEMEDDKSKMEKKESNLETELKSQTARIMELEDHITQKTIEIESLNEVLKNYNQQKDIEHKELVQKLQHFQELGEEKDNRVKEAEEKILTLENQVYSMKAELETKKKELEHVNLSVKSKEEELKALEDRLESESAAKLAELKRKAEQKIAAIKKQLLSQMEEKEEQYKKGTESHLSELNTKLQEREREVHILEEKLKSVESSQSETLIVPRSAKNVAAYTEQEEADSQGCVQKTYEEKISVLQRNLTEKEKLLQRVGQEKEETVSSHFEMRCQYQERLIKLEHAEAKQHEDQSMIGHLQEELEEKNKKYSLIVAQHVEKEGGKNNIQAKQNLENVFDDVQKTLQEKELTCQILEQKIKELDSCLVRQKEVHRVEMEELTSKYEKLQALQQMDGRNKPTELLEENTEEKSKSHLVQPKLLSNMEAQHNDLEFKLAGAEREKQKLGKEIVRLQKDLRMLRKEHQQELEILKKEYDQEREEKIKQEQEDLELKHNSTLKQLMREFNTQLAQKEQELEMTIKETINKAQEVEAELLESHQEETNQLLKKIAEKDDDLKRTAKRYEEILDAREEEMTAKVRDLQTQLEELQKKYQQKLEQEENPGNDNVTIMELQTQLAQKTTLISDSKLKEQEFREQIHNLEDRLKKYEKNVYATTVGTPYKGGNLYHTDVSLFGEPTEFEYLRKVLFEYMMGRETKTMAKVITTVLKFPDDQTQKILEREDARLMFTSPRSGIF
UniProt O75396: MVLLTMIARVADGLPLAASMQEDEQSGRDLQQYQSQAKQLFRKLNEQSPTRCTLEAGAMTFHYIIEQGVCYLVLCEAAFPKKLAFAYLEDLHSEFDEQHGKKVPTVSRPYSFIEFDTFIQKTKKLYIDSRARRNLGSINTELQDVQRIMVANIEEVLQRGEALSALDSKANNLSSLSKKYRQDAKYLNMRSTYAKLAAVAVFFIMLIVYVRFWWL
UniProt P38646, residues 47-679: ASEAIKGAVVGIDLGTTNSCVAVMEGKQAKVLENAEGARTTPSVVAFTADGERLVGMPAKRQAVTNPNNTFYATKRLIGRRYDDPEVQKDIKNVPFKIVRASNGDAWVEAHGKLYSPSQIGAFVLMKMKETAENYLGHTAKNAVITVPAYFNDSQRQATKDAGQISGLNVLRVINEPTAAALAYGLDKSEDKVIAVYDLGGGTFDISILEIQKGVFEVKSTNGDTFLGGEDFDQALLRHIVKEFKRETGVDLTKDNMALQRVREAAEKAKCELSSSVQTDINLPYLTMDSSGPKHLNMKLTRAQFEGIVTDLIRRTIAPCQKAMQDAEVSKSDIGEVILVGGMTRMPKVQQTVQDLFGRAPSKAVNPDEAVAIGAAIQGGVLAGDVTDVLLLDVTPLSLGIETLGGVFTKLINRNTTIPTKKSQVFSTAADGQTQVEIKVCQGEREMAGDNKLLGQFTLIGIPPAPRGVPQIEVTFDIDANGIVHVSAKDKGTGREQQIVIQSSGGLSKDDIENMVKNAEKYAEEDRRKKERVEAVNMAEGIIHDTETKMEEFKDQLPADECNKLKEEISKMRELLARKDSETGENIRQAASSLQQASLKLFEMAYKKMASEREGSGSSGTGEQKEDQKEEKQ
UniProt Q15643: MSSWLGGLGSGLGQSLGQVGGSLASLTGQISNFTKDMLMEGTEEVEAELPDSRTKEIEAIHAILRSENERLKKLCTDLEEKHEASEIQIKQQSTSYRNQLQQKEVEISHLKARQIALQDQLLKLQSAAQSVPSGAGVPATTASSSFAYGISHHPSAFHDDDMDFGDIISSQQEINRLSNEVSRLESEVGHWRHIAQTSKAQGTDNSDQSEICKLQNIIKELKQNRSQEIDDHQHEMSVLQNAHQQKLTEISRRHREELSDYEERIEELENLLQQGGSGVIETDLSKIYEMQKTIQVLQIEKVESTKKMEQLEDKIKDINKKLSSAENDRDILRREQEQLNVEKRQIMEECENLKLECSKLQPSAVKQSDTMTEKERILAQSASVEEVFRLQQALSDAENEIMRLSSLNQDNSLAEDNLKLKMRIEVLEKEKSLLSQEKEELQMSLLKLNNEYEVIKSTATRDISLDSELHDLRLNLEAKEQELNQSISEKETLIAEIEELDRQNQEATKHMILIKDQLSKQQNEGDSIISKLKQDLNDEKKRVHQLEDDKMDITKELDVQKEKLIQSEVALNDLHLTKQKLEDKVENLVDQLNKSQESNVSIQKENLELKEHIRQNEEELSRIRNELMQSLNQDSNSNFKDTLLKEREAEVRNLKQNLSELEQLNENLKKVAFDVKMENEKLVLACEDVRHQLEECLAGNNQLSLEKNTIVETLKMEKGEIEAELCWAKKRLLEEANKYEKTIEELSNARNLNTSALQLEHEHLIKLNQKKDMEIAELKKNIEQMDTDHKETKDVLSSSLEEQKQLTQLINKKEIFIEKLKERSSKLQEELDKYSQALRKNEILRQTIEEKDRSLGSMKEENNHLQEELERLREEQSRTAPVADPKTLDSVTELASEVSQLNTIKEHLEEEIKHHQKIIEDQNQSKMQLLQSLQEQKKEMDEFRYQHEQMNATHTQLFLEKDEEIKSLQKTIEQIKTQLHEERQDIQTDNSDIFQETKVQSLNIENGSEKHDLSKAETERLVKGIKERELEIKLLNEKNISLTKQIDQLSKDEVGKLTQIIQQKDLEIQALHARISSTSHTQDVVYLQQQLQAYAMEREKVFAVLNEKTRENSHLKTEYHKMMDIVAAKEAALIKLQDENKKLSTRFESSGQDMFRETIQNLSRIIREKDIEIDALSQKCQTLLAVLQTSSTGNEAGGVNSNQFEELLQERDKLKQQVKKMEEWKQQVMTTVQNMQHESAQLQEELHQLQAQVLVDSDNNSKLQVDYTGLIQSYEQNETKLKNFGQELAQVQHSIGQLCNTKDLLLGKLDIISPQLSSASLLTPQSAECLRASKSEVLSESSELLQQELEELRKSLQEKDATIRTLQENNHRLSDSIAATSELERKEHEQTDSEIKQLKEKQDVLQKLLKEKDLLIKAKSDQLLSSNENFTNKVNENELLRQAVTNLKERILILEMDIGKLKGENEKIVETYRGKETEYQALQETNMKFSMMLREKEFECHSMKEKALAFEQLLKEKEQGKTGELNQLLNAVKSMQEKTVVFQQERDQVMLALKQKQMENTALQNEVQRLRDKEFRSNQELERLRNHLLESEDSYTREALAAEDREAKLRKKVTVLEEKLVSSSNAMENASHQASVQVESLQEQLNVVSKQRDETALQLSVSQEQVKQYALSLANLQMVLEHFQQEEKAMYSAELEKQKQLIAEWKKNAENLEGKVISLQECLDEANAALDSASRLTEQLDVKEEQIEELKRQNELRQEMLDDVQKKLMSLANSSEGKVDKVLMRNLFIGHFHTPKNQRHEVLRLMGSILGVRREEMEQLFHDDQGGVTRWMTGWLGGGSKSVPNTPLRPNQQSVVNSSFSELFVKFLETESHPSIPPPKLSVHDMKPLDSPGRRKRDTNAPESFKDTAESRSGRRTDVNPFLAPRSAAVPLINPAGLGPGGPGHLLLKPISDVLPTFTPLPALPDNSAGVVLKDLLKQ
UniProt Q9NUY8: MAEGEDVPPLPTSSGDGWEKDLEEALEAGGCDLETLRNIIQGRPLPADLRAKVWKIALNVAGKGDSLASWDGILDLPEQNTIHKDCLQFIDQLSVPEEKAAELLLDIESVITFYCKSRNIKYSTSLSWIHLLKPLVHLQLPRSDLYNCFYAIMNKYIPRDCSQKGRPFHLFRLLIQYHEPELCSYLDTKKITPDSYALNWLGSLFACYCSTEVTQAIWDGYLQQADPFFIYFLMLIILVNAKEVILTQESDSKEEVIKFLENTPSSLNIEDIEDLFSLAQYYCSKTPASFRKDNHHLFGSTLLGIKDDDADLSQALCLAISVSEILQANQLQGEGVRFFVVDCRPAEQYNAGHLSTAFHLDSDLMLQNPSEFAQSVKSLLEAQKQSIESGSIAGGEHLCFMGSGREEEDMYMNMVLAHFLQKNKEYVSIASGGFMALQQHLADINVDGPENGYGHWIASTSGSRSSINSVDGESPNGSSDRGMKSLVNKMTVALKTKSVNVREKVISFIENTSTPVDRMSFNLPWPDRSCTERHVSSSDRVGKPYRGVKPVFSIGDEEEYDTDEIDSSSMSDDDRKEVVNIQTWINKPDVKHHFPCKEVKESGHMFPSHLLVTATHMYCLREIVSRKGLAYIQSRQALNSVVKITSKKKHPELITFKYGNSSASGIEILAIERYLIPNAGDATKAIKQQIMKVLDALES

Experiments:
Experiment in all cases: proximity labelling; BioID2 fused to the carboxy terminus of the bait in stable doxycycline-inducible 293T lines; 50 µM biotin 16 hr; RIPA lysis, streptavidin beads, on-bead digestion, MS; hits ≥threefold over cytoplasmic BioID2 control or absent from it, p < 0.05, three of four replicates
[1] = target: FHIP2B tagged at the carboxy terminus with BioID2 and 3xFLAG (human) (UniProt Q86V87)
[2] = target: FHIP1A tagged at the carboxy terminus with BioID2 and 3xFLAG (human) (UniProt Q05DH4)
[3] = target: FHIP2A tagged at the carboxy terminus with BioID2 and 3xFLAG (human) (UniProt Q5W0V3)

binding [1] | binding [2] | binding [3] | Substance
binds | – | – | DRP1, endogenous in 293T cells (from UniProt O00429 1-736)
– | binds | binds | Hook1, endogenous in 293T cells (from UniProt Q9UJC3 1-728)
binds | – | binds | GOLGA4, endogenous in 293T cells (from UniProt Q13439 1-2230)
– | – | binds | SEC22B, endogenous in 293T cells (from UniProt O75396 1-215)
binds | – | – | GRP75, endogenous in 293T cells (from UniProt P38646 47-679)
– | – | binds | GMAP210, endogenous in 293T cells (from UniProt Q15643 1-1979)
binds | – | binds | TBC1D23, endogenous in 293T cells (from UniProt Q9NUY8 1-699)
binds | – | binds | FAM91A1, endogenous in 293T cells (from UniProt Q658Y4 1-838)
